For at least one compound, name, drawing or mass did not settle the structure.
Legend:
MRSA biofilm = assay: Minimum biofilm eradication assay; settings: matured biofilm treated 24 hours, compared with Linezolid and Vancomycin
MRSA ATCC 43300 = assay: Serum effect on antibacterial activity (MIC); format: cell-based, S. aureus; settings: in the presence of 20% and 40% serum
[1] = tested on: NorA overexpressing S. aureus; format: cell-based; settings: NorA overexpression induced by EtBr

SMILES: CC1(C)C2CN(c3ccc4nc5ccc(N6CC7C(C6)C7(C)C)cc5[s+]c4c3)CC21 (stereo not drawn) [Compound 1, 3,7-Di(6,6-dimethyl-3-azabicyclo[3.1.0]hexan-N-yl)phenothiazinium iodide]
- biofilm eradication activity (MRSA biofilm): equivalent to Linezolid, and better than Vancomycin
- serum effect on antibacterial activity (MRSA ATCC 43300): reduced activity in the presence of serum
- effect of NorA efflux pump overexpression on MIC [1]: does not affect MIC
